Ends that are not written are not given here.

The results in this text go back to patent US20060287233A1, “Method of use of antagonists of zonulin to prevent the loss of or to regenerate pancreatic cells” (priority 2005, published 2006).

In this data set the test system is intraluminal zonulin. The experiment in a line: Intraluminal zonulin by sandwich ELISA of intestinal lavage. It is filed as in vivo, rat.

On to “GGVLVQPG [FZI/O, synthetic octapeptide corresponding to amino acid residues 8-15 of human fetal zonulin]”, for which, where the note is “rat, in vivo”, the “intraluminal zonulin of treated rats that developed diabetes versus treated rats that did not” value came to 3 fold. Where the note is “versus untreated controls”, the “intraluminal zonulin of treated rats that did not develop diabetes” value is on record as “comparable with the untreated controls”.
